Taken from: PubChem BioAssay AID504774 (Drosophila RNAi Screening Center, 2011)

Assay: 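Knock-downs that shift viability of MMS-exposed cells relative to untreated ones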 (primary screen)
Cell system: Drosophila Kc167 cells
Reagents: long dsRNA against Drosophila genes, about 0.25 µg dsRNA per well
Timing: about 6 days: 3 days knock-down, then 3 days with or without MMS
Conditions: methyl methanesulphonate 0.004% (w/v) for 3 days after knock-down
Read-out: 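ATP-dependent luminescence as a measure of live cells in MMS-exposed wells, quantile normalised within each plate, with replicate values also given as a mean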
Scale: mean viability with MMS: higher = more surviving cells after MMS
The screen tested about 23,000 reagents; this is a random part of those with a known target gene and a result. 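Values are quantile-normalised luminescence on an arbitrary scale; higher means more cells surviving MMS.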 Further read-outs or replicates are left out here.

gene	dsRNA	mean viability with MMS
Miro (Mitochondrial Rho)	DRSC15795	3.45e6
CG15130	DRSC02430	3.56e6
Trf (TBP-related factor)	DRSC03462	3.76e6
Spn42Dc (Serpin 42Dc)	DRSC05010	3.34e6
bowl	DRSC00805	3.58e6
CG14096	DRSC10099	3.64e6
CG9483	DRSC03226	3.44e6
CG15535	DRSC15071	3.70e6
Claspin	DRSC08308	1.53e6
CG9672	DRSC20201	3.67e6
CG32683	DRSC17990	3.51e6
CG32683	DRSC18232	3.50e6
CG32683	DRSC18233	3.65e6
CG32488	DRSC08549	2.09e6
CG32488	DRSC21537	3.61e6
s-cup (stanley-cup)	DRSC06277	3.50e6
s-cup (stanley-cup)	DRSC06278	3.47e6
CG3635	DRSC03729	3.61e6
trh (trachealess)	DRSC08355	3.54e6
trh (trachealess)	DRSC08739	3.58e6
rols (rolling pebbles)	DRSC09873	3.58e6
rols (rolling pebbles)	DRSC10254	3.42e6
rols (rolling pebbles)	DRSC10536	3.59e6
toy (twin of eyeless)	DRSC17222	3.45e6
CG14265	DRSC18591	3.54e6
Or47a (Odorant receptor 47a)	DRSC07491	3.57e6
CG13590	DRSC04226	3.65e6
CG31102	DRSC14260	3.63e6

Already shown: 3 of the entries above.
gene	dsRNA	mean viability with MMS
CG15535	DRSC15071	3.70e6
Claspin	DRSC08308	1.53e6
CG9672	DRSC20201	3.67e6
